{"sequences": {"note": "Protein sequences, listed by entry. Tags and fused reporters are not part of them. Lines headed by an entry give the natural chain unless they say otherwise; changes in a name come on top.", "UniProt P51450": "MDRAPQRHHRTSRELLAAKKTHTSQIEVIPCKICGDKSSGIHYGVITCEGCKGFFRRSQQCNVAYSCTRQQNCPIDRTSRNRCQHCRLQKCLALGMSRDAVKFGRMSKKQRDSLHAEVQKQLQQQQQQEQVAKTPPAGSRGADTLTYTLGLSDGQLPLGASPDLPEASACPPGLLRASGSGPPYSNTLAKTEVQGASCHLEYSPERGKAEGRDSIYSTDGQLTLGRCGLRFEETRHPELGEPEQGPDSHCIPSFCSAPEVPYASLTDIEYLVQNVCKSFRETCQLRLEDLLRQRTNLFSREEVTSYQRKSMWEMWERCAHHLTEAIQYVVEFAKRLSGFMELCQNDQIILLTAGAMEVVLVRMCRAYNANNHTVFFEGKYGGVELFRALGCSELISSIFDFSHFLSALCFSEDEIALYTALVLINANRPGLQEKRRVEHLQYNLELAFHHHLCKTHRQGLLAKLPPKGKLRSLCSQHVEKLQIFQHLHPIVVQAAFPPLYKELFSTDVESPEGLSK"}, "source": "PubChem BioAssay AID2551", "about": "(National Center for Advancing Translational Sciences (NCATS), 2010)", "note": "Out of some 310,000 compounds screened, about 17,000 (5.5%) were called active. The inconclusive results got no clear call from the source; some entries with a clear call stand among them for comparison. The call rests on the fitted dose curve; in most records, active means well fitted inhibition curve with a large enough effect; inconclusive means small, poorly fitted or top-dose-only effect, or effect the other way; inactive means no such curve, though single readings can be large or run the other way. A potency beside an inconclusive call is a rough fit, not a confirmed value. Potency means the concentration at half of the fitted maximal effect.", "data": [{"biological_target": "Nuclear receptor ROR-gamma (Mus musculus) (UniProt P51450)", "test": "qHTS for inhibitors of ROR gamma transcriptional activity; further: nearly all actives have a fitted effect of over 60% in size", "settings": "Drosophila S2 Gal4-RORgamma UAS-luciferase reporter, 20 h; series mostly up to 53.6 µM", "summary_of_the_method": "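Drosophila S2 cells stably expressing Gal4-DBD/mouse RORγ fusion under metallothionein promoter plus UAS-luciferase; compound 1 h, then 700 uM CuSO4 induction for 20 h at ambient temperature; inhibition read as reduced luminescence.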", "values": [{"smiles": "COc1cccc(CNC(=S)Nc2cccc(Cl)c2C)c1", "Potency": "active: 5.01 µM"}, {"smiles": "CS(=O)(=O)c1ccc(C2=C(c3ccccc3)C(=O)OC2)cc1", "Potency": "inactive"}, {"smiles": "CCC1Oc2ccc(C)cc2N(CC(=O)NCCCN2CCN(Cc3ccccc3)CC2)C1=O", "note": "(stereo not drawn)", "Potency": "inactive"}, {"smiles": "Cc1ccc(C(=O)N/C(=C\\c2ccc(-c3ccccc3[N+](=O)[O-])o2)C(=O)NCCN(C)C)cc1", "Potency": "active: 7.08 µM"}, {"smiles": "Cc1ccccc1CC1(CO)CCCN(C(=O)CCCN2CCCCC2=O)C1", "note": "(stereo not drawn)", "Potency": "inconclusive: 11.2 µM [activator, partial curve, poor fit]"}, {"smiles": "O=C(NC(=S)Nc1ccc2c(c1)OCCO2)c1cccc2ccccc12", "Potency": "active: 10 µM"}, {"smiles": "O=C(CN1CCCC1)Nc1ccc(S(=O)(=O)N2CCCCC2)cc1", "Potency": "inconclusive: 8.91 µM [inhibitor, partial curve, poor fit]"}, {"smiles": "C/C(CC(=O)Nc1cc(C)ccn1)=N\\NC(=O)c1cccc(C)c1O", "Potency": "active: 11.2 µM"}, {"smiles": "COc1ccccc1N1C(=O)c2ccccc2NC1C(OC)OC", "note": "(stereo not drawn)", "Potency": "inactive"}, {"smiles": "CCOc1ccccc1/C=N/NC(=O)c1cccc(S(=O)(=O)N(CC)CC)c1", "Potency": "inactive"}, {"smiles": "CCOc1ccccc1N(C)S(=O)(=O)c1ccc2c(c1)CCN2C(=O)CCC(=O)O", "Potency": "inactive"}, {"smiles": "C/C(=N/NC(=O)c1sc(NS(=O)(=O)c2ccccc2)nc1C)c1ccccc1", "Potency": "inconclusive: 14.1 µM [activator, partial curve]"}, {"smiles": "Cc1c(-n2c(SCC(=O)N(C)C3CCS(=O)(=O)C3)nc3ccccc3c2=O)c(=O)n(-c2ccccc2)n1C", "note": "(stereo not drawn)", "Potency": "inconclusive: 28.2 µM [inhibitor, single point]"}, {"smiles": "CC(C)NC(=S)NCc1cccs1", "Potency": "inconclusive: 17.8 µM [inhibitor, single point]"}, {"smiles": "O=C(O)CC/C(=C\\c1cccc(NC(=O)c2ccccc2Cl)c1)c1nc2ccccc2s1", "Potency": "inconclusive: 11.2 µM [activator, partial curve]"}, {"smiles": "COc1ccc(Oc2nc(SC)nc3ccsc23)cc1", "Potency": "inconclusive: 0.794 µM [activator, full curve, poor fit]"}, {"smiles": "[O-]/C(=C(\\C(=S)Nc1ccc(SC(F)F)cc1)[n+]1ccccc1)c1cc(Cl)ccc1Cl", "Potency": "inconclusive: 22.4 µM [inhibitor, single point]"}, {"smiles": "O=C(N/N=C\\C=C\\c1ccco1)c1cncc(Br)c1", "Potency": "active: 2.24 µM"}, {"smiles": "O=C(Cn1cc2c(n1)CCCCC2)Nc1c(F)cc(F)cc1Br", "Potency": "inactive"}, {"smiles": "C[C@@]12C(=O)OC(=O)[C@@]1(C)C1CCC2O1", "Potency": "active: 14.1 µM"}, {"smiles": "Cn1c(C(C#N)C(=O)c2sc3ccccc3c2Cl)nc2ccccc21", "note": "(stereo not drawn)", "Potency": "active: 1.78 µM"}, {"smiles": "COc1ccc(-n2nc(C(=O)NCC(=O)N3CCCCCC3)c3ccccc3c2=O)cc1Cl", "Potency": "inconclusive: 35.5 µM [activator, single point]"}, {"smiles": "CCC(=O)NC1CC2CCCC(C1)N2Cc1ccc(C)cc1", "note": "(stereo not drawn)", "Potency": "inconclusive: 22.4 µM [inhibitor, single point]"}, {"smiles": "COc1cccc2sc(N(CCCN(C)C)C(=O)C(c3ccccc3)c3ccccc3)nc12", "Potency": "inconclusive: 11.2 µM [inhibitor, partial curve]"}, {"smiles": "CNC(=O)c1cc(C(=O)c2ccc(C(F)(F)F)cc2F)c[nH]1", "Potency": "inconclusive: 11.2 µM [activator, partial curve]"}, {"smiles": "Cc1ccc(-n2c(-c3ccccc3)nnc2-c2cccs2)cc1", "Potency": "inconclusive: 12.6 µM [activator, single point]"}, {"smiles": "Cc1c(CC(=O)NC(C)C)c(=O)oc2cc3c(cc12)CCC(C)(C)O3", "Potency": "inconclusive: 12.6 µM [activator, single point]"}, {"smiles": "Cc1cccc(CC(=O)NC2CCN(C)CC2)c1", "Potency": "inconclusive: 0.282 µM [inhibitor, single point]"}, {"smiles": "Cc1ccc(-n2ncc3c2CCCC3NC(=O)c2ocnc2C)cc1C", "note": "(stereo not drawn)", "Potency": "inactive"}, {"smiles": "O=C(Nc1ccccc1)c1c(F)c(F)c(F)c(F)c1F", "Potency": "inactive"}, {"smiles": "Cc1snc2sc(C(=O)c3ccc(Br)cc3)c(N)c12", "Potency": "inconclusive: 6.31 µM [activator, full curve, poor fit]"}, {"smiles": "COCC1CCN(C(=O)CC2C(=O)NCCN2Cc2cccc(Oc3ccccc3)c2)CC1", "note": "(stereo not drawn)", "Potency": "inconclusive: 15.8 µM [activator, single point]"}, {"smiles": "Cc1ccc(-c2csc(NC(=O)CCNC(=O)c3ccccc3Cl)n2)cc1", "Potency": "inconclusive: 12.6 µM [activator, partial curve]"}, {"smiles": "CCOc1cc(C2C(C#N)=C(N)Oc3cc(N)ccc32)ccc1O", "note": "(stereo not drawn)", "Potency": "inconclusive: 10 µM [activator, partial curve, poor fit]"}, {"smiles": "Cn1c(=O)n(C)c2cc([N+](=O)[O-])c(N3CCN(S(=O)(=O)c4ccc5ccccc5c4)CC3)cc21", "Potency": "inconclusive: 8.91 µM [activator, partial curve]"}, {"smiles": "COc1c(/C=N/NC(=O)c2ccccc2O)c(CCN(C)C(C)=O)cc2c1OCO2", "Potency": "inconclusive: 15.8 µM [inhibitor, single point]"}, {"smiles": "CCn1c(SCc2nc3scc(-c4ccccc4)c3c(=O)[nH]2)nnc1-c1cccs1", "Potency": "inconclusive: 11.2 µM [activator, partial curve]"}, {"smiles": "O=C(NCc1cn(-c2ccccc2)nc1-c1ccccc1)c1cc([N+](=O)[O-])cc([N+](=O)[O-])c1", "Potency": "inconclusive: 14.1 µM [activator, partial curve]"}, {"smiles": "COc1cc(/C=C/c2nc(-c3ccccc3O)n[nH]2)cc(OC)c1OC", "Potency": "inconclusive: 31.6 µM [inhibitor, single point]"}, {"smiles": "CN(C(=O)c1cc(COc2ccc(F)cc2Cl)on1)C1CCCc2ccccc21", "note": "(stereo not drawn)", "Potency": "inconclusive: 12.6 µM [activator, single point]"}, {"smiles": "CCOC(=O)c1ccc(N2CCOCC2)c(NC(=O)c2c(-c3ccccc3)noc2C)c1", "Potency": "inactive"}, {"smiles": "C/C(Cn1cnc([N+](=O)[O-])n1)=N\\NC(=O)c1cccc(F)c1", "Potency": "inconclusive: 12.6 µM [inhibitor, single point]"}, {"smiles": "Cc1ccc(C2C(C#N)=C(N)Oc3cc(C)oc(=O)c32)o1", "note": "(stereo not drawn)", "Potency": "inconclusive: 35.5 µM [inhibitor, single point]"}, {"smiles": "CC(C)C[C@@H](CC(=O)N[C@@H](CCC(=O)O)CC(=O)O)NC(=O)[C@@H]1CNCC[C@H]1NC(=O)C[C@H](CCCN)NC(=O)C[C@H](CO)NC(=O)[C@@H]1CCCC[C@H]1N", "Potency": "inactive"}, {"smiles": "Cc1c(C(=O)N(C)C2CCCCC2)sc2ncnc(N3CCN(c4ccccc4)CC3)c12", "Potency": "inconclusive: 35.5 µM [activator, single point]"}, {"smiles": "NS(=O)(=O)c1ccc(CCNC(=O)CN2CCC(Cc3ccccc3)CC2)cc1", "Potency": "inconclusive: 35.5 µM [inhibitor, single point]"}, {"smiles": "COCCOC(=O)CSc1ncccc1-c1nc2cc(C)c(C)cc2[nH]1", "Potency": "inconclusive: 22.4 µM [inhibitor, single point]"}, {"smiles": "Brc1ccc(C2=CC(c3cccs3)n3ncnc3N2)cc1", "note": "(stereo not drawn)", "Potency": "inconclusive: 12.6 µM [inhibitor, partial curve, poor fit]"}, {"smiles": "O=C1Nc2ccccc2/C1=C/C(=O)c1cccs1", "Potency": "inconclusive: 3.98 µM [inhibitor, single point]"}, {"smiles": "CC1=NN(c2nc3ccccc3[nH]2)C(=O)/C1=C/N(C)C", "Potency": "active: 5.01 µM"}, {"smiles": "NNC(=S)NCCc1ccccc1", "Potency": "active: 3.55 µM"}, {"smiles": "Cc1nn2c(-c3ccncc3)nnc2c2ccccc12", "Potency": "inconclusive: 17.8 µM [inhibitor, partial curve]"}, {"smiles": "COC(=O)c1ccc(CSc2nc(-c3ccccc3)cs2)o1", "Potency": "inconclusive: 12.6 µM [activator, single point]"}, {"smiles": "Cc1cc(C)c(O)c(-c2cc(C(=O)Nc3ccc(S(=O)(=O)N4CCOCC4)cc3)[nH]n2)c1", "Potency": "inconclusive: 1.26 µM [activator, partial curve]"}, {"smiles": "NNC(=O)c1cc2c(s1)-c1cc(Cl)ccc1SC2", "Potency": "inconclusive: 6.31 µM [inhibitor, single point]"}, {"smiles": "CSS(=O)(=O)c1cccc2cccnc12", "Potency": "inconclusive: 17.8 µM [inhibitor, single point]"}, {"smiles": "COC(=O)c1ccc(CSc2nc(C)nc3sc(C)c(C)c23)o1", "Potency": "inconclusive: 22.4 µM [inhibitor, single point]"}, {"smiles": "COc1cccc(/C=N/NC(=O)C(C)n2nc(C)c([N+](=O)[O-])c2C)c1O", "note": "(stereo not drawn)", "Potency": "active: 0.178 µM"}, {"smiles": "Cc1cc(CSc2ccccc2)ccc1NC(=O)c1ccc(CN2CCOCC2)cc1", "Potency": "inconclusive: 2 µM [activator, full curve]"}, {"smiles": "O=C1NCC(c2ccccc2)C1C(=O)N/N=C/c1ccc(Cl)s1", "note": "(stereo not drawn)", "Potency": "inconclusive: 17.8 µM [inhibitor, partial curve]"}, {"smiles": "Cc1cc(C)nc(/N=C(\\N)Nc2ccc(OCCC(C)C)cc2)n1", "Potency": "inconclusive: 12.6 µM [activator, partial curve]"}, {"smiles": "CC(C)Oc1ccc(C(=O)NC2CCN(Cc3ccccc3)CC2)cc1", "Potency": "inactive"}, {"smiles": "O=C(c1cc(C(F)(F)F)cc(C(F)(F)F)c1)N1CCC2(CC1)CN(c1ncccn1)C2", "Potency": "inactive"}, {"smiles": "CN(C)S(=O)(=O)Oc1cccc(C(=O)Nc2cccc(Cl)c2)c1", "Potency": "inconclusive: 11.2 µM [activator, partial curve]"}, {"smiles": "CCCc1ccc(Oc2coc3cc(OCC(=O)Nc4ccccc4C)ccc3c2=O)cc1", "Potency": "inconclusive: 15.8 µM [inhibitor, partial curve, poor fit]"}, {"smiles": "CCn1c(SCC(=O)N2CCN(c3ccccc3)CC2)nnc1-c1c[nH]c2ccccc12", "Potency": "inconclusive: 20 µM [activator, single point]"}, {"smiles": "OC(Cn1cncn1)(c1ccc(F)cc1)c1ccc(Cl)cc1", "note": "(stereo not drawn)", "Potency": "inactive"}, {"smiles": "CCN(CC)S(=O)(=O)c1ccc2oc(Nc3ccc(OC)cc3)nc2c1", "Potency": "inconclusive: 14.1 µM [activator, single point]"}]}]}
